These are yes or no findings as the source states them, for the method shown. Binding seen in cells or lysates may run through a third protein. Some binding calls cover weakened binding; strength is not graded here. Where a sequence is shown, tags or fusion partners need not be part of it.

Protein sequences, listed by entry. Tags and fused reporters are not part of them. Lines headed by an entry give the natural chain unless they say otherwise; changes in a name come on top. Chains listed by the source or under a name are the forms on record and can include a tag or linker.
GFP tagged RTN3 (human (cDNA from HEK293T)) (O95197, form named): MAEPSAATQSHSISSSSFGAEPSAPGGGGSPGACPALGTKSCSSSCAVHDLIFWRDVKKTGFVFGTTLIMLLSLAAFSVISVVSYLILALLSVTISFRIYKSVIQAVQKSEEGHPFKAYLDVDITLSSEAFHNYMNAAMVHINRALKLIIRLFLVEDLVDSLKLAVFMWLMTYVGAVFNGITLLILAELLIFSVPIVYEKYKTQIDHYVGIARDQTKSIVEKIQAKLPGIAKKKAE

For assay [1], the target named is GFP tagged RTN3 (human (cDNA from HEK293T)) (UniProt O95197). Kind of assay: co-IP.
Assay [2] addresses GFP tagged TRIM25 (human (cDNA from HEK293T)), Q14258. Kind of assay: co-IP. Particulars: remark: other sources report otherwise.

B1: Flag-RIG-I (protein, UniProt O95786 1-925)
chain: MTTEQRRSLQAFQDYIRKTLDPTYILSYMAPWFREEEVQYIQAEKNNKGPMEAATLFLKFLLELQEEGWFRGFLDALDHAGYSGLYEAIESWDFKKIEKLEEYRLLLKRLQPEFKTRIIPTDIISDLSECLINQECEEILQICSTKGMMAGAEKLVECLLRSDKENWPKTLKLALEKERNKFSELWIVEKGIKDVETEDLEDKMETSDIQIFYQEDPECQNLSENSCPPSEVSDTNLYSPFKPRNYQLELALPAMKGKNTIICAPTGCGKTFVSLLICEHHLKKFPQGQKGKVVFFANQIPVYEQQKSVFSKYFERHGYRVTGISGATAENVPVEQIVENNDIIILTPQILVNNLKKGTIPSLSIFTLMIFDECHNTSKQHPYNMIMFNYLDQKLGGSSGPLPQVIGLTASVGVGDAKNTDEALDYICKLCASLDASVIATVKHNLEELEQVVYKPQKFFRKVESRISDKFKYIIAQLMRDTESLAKRICKDLENLSQIQNREFGTQKYEQWIVTVQKACMVFQMPDKDEESRICKALFLYTSHLRKYNDALIISEHARMKDALDYLKDFFSNVRAAGFDEIEQDLTQRFEEKLQELESVSRDPSNENPKLEDLCFILQEEYHLNPETITILFVKTRALVDALKNWIEGNPKLSFLKPGILTGRGKTNQNTGMTLPAQKCILDAFKASGDHNILIATSVADEGIDIAQCNLVILYEYVGNVIKMIQTRGRGRARGSKCFLLTSNAGVIEKEQINMYKEKMMNDSILRLQTWDEAVFREKILHIQTHEKFIRDSQEKPKPVPDKENKKLLCRKCKALACYTADVRVIEECHYTVLGDAFKECFVSRPHPKPKQFSSFEKRAKIFCARQNCSHDWGIHVKYKTFEIPVIKIESFVVEDIATGVQTLYSKWKDFHFEKIPFDPAEMSK
Consider B1, for which, in assay [1], the binding result is “binds”.

B2: Flag-RIG-I, O95786 1-925 (protein)
chain: MTTEQRRSLQAFQDYIRKTLDPTYILSYMAPWFREEEVQYIQAEKNNKGPMEAATLFLKFLLELQEEGWFRGFLDALDHAGYSGLYEAIESWDFKKIEKLEEYRLLLKRLQPEFKTRIIPTDIISDLSECLINQECEEILQICSTKGMMAGAEKLVECLLRSDKENWPKTLKLALEKERNKFSELWIVEKGIKDVETEDLEDKMETSDIQIFYQEDPECQNLSENSCPPSEVSDTNLYSPFKPRNYQLELALPAMKGKNTIICAPTGCGKTFVSLLICEHHLKKFPQGQKGKVVFFANQIPVYEQQKSVFSKYFERHGYRVTGISGATAENVPVEQIVENNDIIILTPQILVNNLKKGTIPSLSIFTLMIFDECHNTSKQHPYNMIMFNYLDQKLGGSSGPLPQVIGLTASVGVGDAKNTDEALDYICKLCASLDASVIATVKHNLEELEQVVYKPQKFFRKVESRISDKFKYIIAQLMRDTESLAKRICKDLENLSQIQNREFGTQKYEQWIVTVQKACMVFQMPDKDEESRICKALFLYTSHLRKYNDALIISEHARMKDALDYLKDFFSNVRAAGFDEIEQDLTQRFEEKLQELESVSRDPSNENPKLEDLCFILQEEYHLNPETITILFVKTRALVDALKNWIEGNPKLSFLKPGILTGRGKTNQNTGMTLPAQKCILDAFKASGDHNILIATSVADEGIDIAQCNLVILYEYVGNVIKMIQTRGRGRARGSKCFLLTSNAGVIEKEQINMYKEKMMNDSILRLQTWDEAVFREKILHIQTHEKFIRDSQEKPKPVPDKENKKLLCRKCKALACYTADVRVIEECHYTVLGDAFKECFVSRPHPKPKQFSSFEKRAKIFCARQNCSHDWGIHVKYKTFEIPVIKIESFVVEDIATGVQTLYSKWKDFHFEKIPFDPAEMSK
Turning to B2, in assay [2], the binding entry was “binds”.
